Laboratory results: PubChem BioAssay AID624415 (National Center for Advancing Translational Sciences (NCATS), 2012)
Out of some 390,000 compounds screened, about 60 (0.02%) were called active. The inconclusive results got no clear call from the source; some entries with a clear call stand among them for comparison. Cut-off read from the data, not from the text of the source: active = activity change below about -50%; inconclusive = between about -30% and that limit; inactive = weaker than that.

Chains of the proteins cited; added tags and fusions are not shown.
UniProt Q9GZU1, whole entry, looked up: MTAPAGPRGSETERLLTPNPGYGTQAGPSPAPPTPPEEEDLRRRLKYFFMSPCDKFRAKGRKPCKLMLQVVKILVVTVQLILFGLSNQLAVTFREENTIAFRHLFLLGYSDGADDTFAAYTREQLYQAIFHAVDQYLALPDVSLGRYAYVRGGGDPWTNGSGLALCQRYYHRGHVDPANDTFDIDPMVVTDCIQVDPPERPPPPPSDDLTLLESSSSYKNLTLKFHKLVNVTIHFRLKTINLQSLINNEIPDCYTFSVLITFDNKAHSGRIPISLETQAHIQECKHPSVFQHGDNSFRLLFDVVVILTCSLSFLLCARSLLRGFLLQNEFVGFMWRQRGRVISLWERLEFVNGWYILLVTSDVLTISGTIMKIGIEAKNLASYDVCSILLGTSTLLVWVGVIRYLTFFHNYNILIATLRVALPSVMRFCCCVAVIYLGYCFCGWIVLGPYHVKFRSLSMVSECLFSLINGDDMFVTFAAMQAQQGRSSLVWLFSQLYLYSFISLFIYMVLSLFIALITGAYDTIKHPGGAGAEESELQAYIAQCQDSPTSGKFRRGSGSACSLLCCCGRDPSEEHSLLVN

biological target: Mucolipin-1 (Homo sapiens) (UniProt Q9GZU1); test: qHTS for Inhibitors of the Human Mucolipin Transient Receptor Potential 1 (TRPML1); details: TRPML1-inducible cells, Ca2+ dye fluorescence, FDSS; stronger effect = lower value; inhibition of EC80 agonist-evoked calcium signal;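 note: stimulus is agonist 54-4 at its EC80 concentration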
Procedure, shortened: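 Calcium fluorescence in TRPML1-DL cells induced overnight with Tet: a 110 s read after compound pin addition, then a 110 s antagonist read after challenge with 54-4 at 4 uM final (EC80).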
% is set by controls: 0 for no effect and ±100 for the full control effect.

| Compound | activity change, negative = inhibition |
| --- | --- |
| CCOC(=O)c1ccccc1NC(=O)N(Cc1ccco1)C1CCN(C(C)=O)CC1 | inconclusive: -39.7% |
| CCn1c(SCC(=O)Nc2cc(F)ccc2C)nnc1-c1ccccc1O | inconclusive: -41.1% |
| CCOCCCNC(=O)c1cc(Nc2ccc(OC)cc2OC)nc2ccccc12 | inconclusive: -38.1% |
| CCOc1ccc(NC(=O)CN2CCN(CC(=O)Nc3ccc4c(c3)OCO4)CC2)cc1 | inactive: -0.54% |
| COc1ccc(C(=O)NCCSc2c(C)[nH]c3ccccc23)cc1 | inconclusive: -34.8% |
| COC(=O)c1sc(-c2ccccc2)cc1NC(=O)Nc1ccccc1Cl | inconclusive: -31.2% |
| O=C1/C(=C/c2ccc(N3CCCC3)cc2)NC(=S)N1C1CC1 | inactive: -8.51% |
| CCc1ccc2occ(CC(=O)Nc3nnc(C)s3)c2c1 | inconclusive: -31.7% |
| Cc1sc2nc(N)sc2c1C | inconclusive: -31.9% |
| CCOc1cc(C2Nc3ccccc3C(=O)N2c2ccccc2OC)ccc1O (stereo unspecified) | inconclusive: -30.4% |
| CCn1cc(/C=C/C(=O)Nc2c(C)nn(Cc3ccccc3)c2C)cn1 | inconclusive: -30.3% |
| Cc1ccc(NC(=O)CSc2nnc(COc3ccc(Cl)cc3)o2)cc1 | inconclusive: -36.5% |
| COc1cc(CNc2ncc(-c3ccc(Br)cc3)n2C)cc(OC)c1O | inactive: -6.31% |
| Cc1ccc(CN2CCC(C(=O)c3ccc(F)cc3)CC2)cc1 | inactive: 8.41% |
| COc1ccc(Cl)cc1NC(=O)c1ccc(CN2C(=O)CCn3nc(C)cc32)cc1 | inconclusive: -31.3% |
| CS(=O)(=O)c1ccc(C(=O)Nc2ccc(N3CCCCC3)cc2)c(Cl)c1 | inactive: 18.6% |
| CC(=O)N1CCOc2ccc(S(=O)(=O)N3CCC(C)CC3)cc21 | active: -59.2% |
| CCc1ccc(S(=O)(=O)/N=C2\C=C(NS(=O)(=O)c3ccccc3)C(=O)c3ccccc32)cc1 | inconclusive: -37.4% |
| CSc1cccc(NC(=S)N(CCCN2CCCC2)Cc2cccn2Cc2ccc(Cl)cc2)c1 | inactive: 7.19% |

| Compound | activity change, negative = inhibition |
| --- | --- |
| O=C(COc1ccccc1F)OCc1cc(=O)n2nc(C3CCCCC3)sc2n1 | inconclusive: -31.4% |
| COc1cc(NC(=S)NCCSc2ccc(C)cc2)cc(OC)c1 | inconclusive: -34.5% |
| O=C1NC(=S)S/C1=C\C=C\c1ccc([N+](=O)[O-])o1 | inconclusive: -30.5% |
| COc1ccc(N2C(=O)c3ccccc3C2=O)cc1 | inactive: -5.03% |
| Cc1nn(-c2ccccc2)c2c1C1(C(=O)Nc3ccccc31)N1C(=N2)Sc2ccccc21 (stereo unspecified) | inconclusive: -47.9% |
| COc1cc2ccccc2cc1C(=O)OCC(=O)c1c(N)n(C)c(=O)n(C)c1=O | inconclusive: -30.7% |
| CC(C)c1ccc(NC(=O)CSc2ncnc3c2sc2ccccc23)cc1 | inconclusive: -44.1% |
| CN=C(c1ccccc1)c1c(C)cccc1C | inconclusive: -42.5% |
| CCOCc1c(C(=O)Nc2ccc(OC)nc2)oc2ccccc12 | inactive: 37.3% |
| O=C1CC(C2CCCO2)C(=O)N1c1ccccc1 (stereo unspecified) | inconclusive: -33.6% |
| CCOc1ccc(CCNC(=O)c2cc3cc4cc(OC)ccc4nc3s2)cc1OCC | inactive: -15.5% |
| Cc1cc(C)c2c(c1)C1C=CCC1C(C(=O)O)N2 (stereo unspecified) | inactive: 7.85% |
| CC(=O)c1ccc(N2CCN(C(=O)C3CCN(S(=O)(=O)c4cn(C)cn4)CC3)CC2)cc1 | inconclusive: -31.8% |
| COc1ccccc1NC(=O)c1sc2ncn(CC(=O)Nc3ccccc3)c(=O)c2c1C | inactive: 1.95% |
| CC(CCc1ccccc1)NC(=O)Cn1c(=O)nc(-c2ccccc2)c2ccccc21 (stereo unspecified) | inconclusive: -33% |
| CSc1ccc(-c2nnc(NC(=O)c3ccc4c(c3)OCCO4)o2)cc1 | inactive: 3.73% |
| COc1ccc(CCN2CCCC(CN(C)Cc3cc(OC)ccc3OC)C2)cc1 (stereo unspecified) | inconclusive: -32.5% |
| NC(=O)C1CCN(C(=O)c2ccc(Oc3cc(Cl)cc(Cl)c3)o2)CC1 | inconclusive: -30.1% |
| CCN(CCN(C)Cl)/[N+]([O-])=N/Oc1ccc([N+](=O)[O-])cc1[N+](=O)[O-] | inactive: -20.9% |

| Compound | activity change, negative = inhibition |
| --- | --- |
| O=C1C=CC(=O)N1Cc1ccccn1 | inconclusive: -31% |
| CCCC(=O)N(c1ccc2oc(=O)sc2c1)S(=O)(=O)c1cccs1 | inconclusive: -33.9% |
| Cc1ccc(NC(=O)CN(C)CC(=O)NC2CCCc3ccccc32)cc1 (stereo unspecified) | inconclusive: -38.2% |
| Cc1ccc(C(c2nnnn2Cc2ccccc2)N2CCN(Cc3ccccc3)CC2)cc1 (stereo unspecified) | inactive: -10.8% |
| O=C(CSc1nnc(-c2ccco2)o1)c1ccc[nH]1 | inconclusive: -32.8% |
| c1ccc2c(c1)ccc1nnc(SCc3ccc4c(c3)OCCO4)n12 | inactive: 26.6% |
| COc1ccc(N=N/C(=C\O)C(=O)c2cccs2)cc1 | inactive: -4.83% |
| Cc1ccc(-n2c(SCC(=O)N3CCCc4ccccc43)nc3c([nH]c4ccccc43)c2=O)cc1 | inconclusive: -38.4% |
| CCOC(=O)CSc1nc2cc3c(cc2c(=O)n1Cc1ccc(C(=O)NCCc2ccc(OC)c(OC)c2)cc1)OCO3 | inconclusive: -32.8% |
| COc1ccc(-c2cc(CNC(C)=O)on2)cc1 | inconclusive: -42.9% |
| O=C(Cn1ccc(C(F)(F)F)n1)N=Nc1c(O)[nH]c2ccc(Br)cc12 | inconclusive: -33.6% |
| CN(C)S(=O)(=O)c1ccc(C(=O)OCC2CCCO2)cc1 (stereo unspecified) | inconclusive: -30.9% |
| COc1ccc(S(=O)(=O)N2CCC(C(=O)NCc3ccncc3)CC2)cc1C | inconclusive: -41.3% |
| CCOC(=O)c1c(-c2cccs2)csc1NC(=O)CC(C)C | inconclusive: -36.4% |
| CCc1cc(=O)oc2c(CNCc3c(F)cccc3Cl)c(O)ccc12 | inconclusive: -31.5% |
| CSc1ccc(CN2CCCC(CO)(Cc3ccccc3)C2)cc1 (stereo unspecified) | inactive: -1.05% |
| CCc1nnc(NC(=O)c2ccc(-c3ccccc3F)o2)s1 | inconclusive: -33.3% |
| CC1CC2C3CCC4=CC(=O)C=CC4(C)C3(F)C(O)CC2(C)C1(O)C(=O)CO (stereo unspecified) | inconclusive: -34.3% |

Some of the entries above in another layout.
Compound	activity change, negative = inhibition
COc1ccc(N=N/C(=C\O)C(=O)c2cccs2)cc1	inactive: -4.83%
Cc1ccc(-n2c(SCC(=O)N3CCCc4ccccc43)nc3c([nH]c4ccccc43)c2=O)cc1	inconclusive: -38.4%
CCOC(=O)CSc1nc2cc3c(cc2c(=O)n1Cc1ccc(C(=O)NCCc2ccc(OC)c(OC)c2)cc1)OCO3	inconclusive: -32.8%
COc1ccc(-c2cc(CNC(C)=O)on2)cc1	inconclusive: -42.9%
O=C(Cn1ccc(C(F)(F)F)n1)N=Nc1c(O)[nH]c2ccc(Br)cc12	inconclusive: -33.6%
